# Assay results reported in the supplement of paper PMC10849652.
# The chains behind the UniProt entries cited, without tags or fusion partners. Where a name states a change or a piece, a line headed by the entry shows the natural chain unless it says otherwise.
# UniProt Q03060: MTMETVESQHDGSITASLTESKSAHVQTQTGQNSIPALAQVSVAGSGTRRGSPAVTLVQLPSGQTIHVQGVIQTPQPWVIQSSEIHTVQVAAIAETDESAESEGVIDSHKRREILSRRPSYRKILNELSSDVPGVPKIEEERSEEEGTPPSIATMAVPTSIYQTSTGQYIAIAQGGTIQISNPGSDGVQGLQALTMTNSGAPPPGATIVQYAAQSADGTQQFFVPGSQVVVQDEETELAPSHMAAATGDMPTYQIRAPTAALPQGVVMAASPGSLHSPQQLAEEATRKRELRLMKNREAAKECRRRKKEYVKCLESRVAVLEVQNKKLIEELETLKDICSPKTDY
# UniProt Q9P2B4: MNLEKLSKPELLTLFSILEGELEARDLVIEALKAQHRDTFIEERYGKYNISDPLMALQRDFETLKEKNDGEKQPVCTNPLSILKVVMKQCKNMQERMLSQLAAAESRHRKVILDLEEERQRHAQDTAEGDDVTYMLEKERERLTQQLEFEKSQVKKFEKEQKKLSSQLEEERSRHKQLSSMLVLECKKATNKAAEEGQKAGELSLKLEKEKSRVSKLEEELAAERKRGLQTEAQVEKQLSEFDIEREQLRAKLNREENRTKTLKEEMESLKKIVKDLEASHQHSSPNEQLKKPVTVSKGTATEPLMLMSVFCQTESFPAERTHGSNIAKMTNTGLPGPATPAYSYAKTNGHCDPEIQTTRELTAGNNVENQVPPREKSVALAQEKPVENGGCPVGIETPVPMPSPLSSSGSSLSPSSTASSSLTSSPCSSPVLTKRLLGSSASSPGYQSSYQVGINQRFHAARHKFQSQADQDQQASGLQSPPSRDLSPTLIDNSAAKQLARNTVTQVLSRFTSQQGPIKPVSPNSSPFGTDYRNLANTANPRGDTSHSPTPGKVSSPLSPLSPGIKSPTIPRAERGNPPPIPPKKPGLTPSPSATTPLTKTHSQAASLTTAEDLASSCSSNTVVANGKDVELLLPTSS
# UniProt P52943: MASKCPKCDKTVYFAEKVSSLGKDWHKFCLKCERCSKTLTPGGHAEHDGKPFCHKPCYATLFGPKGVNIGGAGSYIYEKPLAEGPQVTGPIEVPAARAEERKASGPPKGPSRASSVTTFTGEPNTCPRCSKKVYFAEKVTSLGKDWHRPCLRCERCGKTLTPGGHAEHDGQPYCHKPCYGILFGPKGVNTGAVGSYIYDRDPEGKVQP
# UniProt Q9HCP0: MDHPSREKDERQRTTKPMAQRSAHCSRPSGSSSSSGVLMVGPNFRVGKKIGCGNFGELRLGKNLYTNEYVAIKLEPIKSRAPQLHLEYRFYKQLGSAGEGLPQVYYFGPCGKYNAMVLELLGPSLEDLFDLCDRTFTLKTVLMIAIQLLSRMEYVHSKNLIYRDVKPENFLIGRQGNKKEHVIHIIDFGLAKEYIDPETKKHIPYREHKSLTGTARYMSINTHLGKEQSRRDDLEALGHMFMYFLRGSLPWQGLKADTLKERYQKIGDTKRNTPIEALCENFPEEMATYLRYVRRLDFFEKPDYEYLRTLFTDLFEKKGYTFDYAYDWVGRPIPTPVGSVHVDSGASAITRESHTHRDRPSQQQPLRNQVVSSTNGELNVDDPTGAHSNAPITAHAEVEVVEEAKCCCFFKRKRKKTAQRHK
# UniProt Q14894: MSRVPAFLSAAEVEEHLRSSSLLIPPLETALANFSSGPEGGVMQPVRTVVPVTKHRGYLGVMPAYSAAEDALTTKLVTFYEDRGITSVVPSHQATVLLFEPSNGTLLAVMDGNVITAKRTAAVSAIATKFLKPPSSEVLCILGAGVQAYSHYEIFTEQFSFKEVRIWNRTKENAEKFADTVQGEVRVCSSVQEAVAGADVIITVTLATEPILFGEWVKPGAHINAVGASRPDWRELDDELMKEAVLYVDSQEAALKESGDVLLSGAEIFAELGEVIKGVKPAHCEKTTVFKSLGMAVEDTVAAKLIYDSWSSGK
# UniProt O75534: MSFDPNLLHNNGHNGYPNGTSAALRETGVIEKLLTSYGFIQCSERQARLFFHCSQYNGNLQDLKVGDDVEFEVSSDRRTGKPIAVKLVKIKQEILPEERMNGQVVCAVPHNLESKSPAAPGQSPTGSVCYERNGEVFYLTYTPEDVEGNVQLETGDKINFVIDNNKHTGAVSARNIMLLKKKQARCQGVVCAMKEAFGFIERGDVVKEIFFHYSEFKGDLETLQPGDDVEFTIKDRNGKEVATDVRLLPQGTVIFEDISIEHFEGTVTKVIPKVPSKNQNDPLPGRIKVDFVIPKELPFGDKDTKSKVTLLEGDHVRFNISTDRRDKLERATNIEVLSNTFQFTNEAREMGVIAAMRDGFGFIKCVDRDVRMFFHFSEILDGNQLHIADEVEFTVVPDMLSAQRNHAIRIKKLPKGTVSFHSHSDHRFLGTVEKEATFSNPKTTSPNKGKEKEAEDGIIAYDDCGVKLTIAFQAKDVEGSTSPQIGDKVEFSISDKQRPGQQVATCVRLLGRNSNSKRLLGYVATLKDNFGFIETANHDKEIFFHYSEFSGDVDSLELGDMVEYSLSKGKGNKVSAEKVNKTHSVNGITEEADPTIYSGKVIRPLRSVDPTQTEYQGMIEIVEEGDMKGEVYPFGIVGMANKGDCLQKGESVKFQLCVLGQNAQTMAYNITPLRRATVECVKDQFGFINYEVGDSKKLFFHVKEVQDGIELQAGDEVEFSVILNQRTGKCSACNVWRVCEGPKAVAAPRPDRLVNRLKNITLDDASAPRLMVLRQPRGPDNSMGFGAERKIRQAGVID
# UniProt Q16527: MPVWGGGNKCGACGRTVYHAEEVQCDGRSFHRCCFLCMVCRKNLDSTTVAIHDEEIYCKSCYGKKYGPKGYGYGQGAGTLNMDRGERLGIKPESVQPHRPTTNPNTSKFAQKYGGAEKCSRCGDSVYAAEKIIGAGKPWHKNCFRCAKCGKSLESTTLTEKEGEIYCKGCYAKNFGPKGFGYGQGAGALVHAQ
# UniProt Q9UJA2: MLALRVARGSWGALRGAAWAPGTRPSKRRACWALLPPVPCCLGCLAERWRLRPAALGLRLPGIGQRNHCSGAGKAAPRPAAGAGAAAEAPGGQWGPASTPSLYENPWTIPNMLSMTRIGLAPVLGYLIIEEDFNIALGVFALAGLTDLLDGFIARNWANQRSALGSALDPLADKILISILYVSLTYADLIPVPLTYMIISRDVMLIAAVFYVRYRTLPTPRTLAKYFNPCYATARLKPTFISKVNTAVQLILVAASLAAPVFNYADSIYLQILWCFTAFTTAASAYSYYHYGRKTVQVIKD
# UniProt P00167, whole entry, looked up: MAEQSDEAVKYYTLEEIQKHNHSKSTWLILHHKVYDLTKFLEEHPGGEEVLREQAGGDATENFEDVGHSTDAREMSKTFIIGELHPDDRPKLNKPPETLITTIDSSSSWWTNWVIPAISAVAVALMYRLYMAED
# UniProt Q9BQA9: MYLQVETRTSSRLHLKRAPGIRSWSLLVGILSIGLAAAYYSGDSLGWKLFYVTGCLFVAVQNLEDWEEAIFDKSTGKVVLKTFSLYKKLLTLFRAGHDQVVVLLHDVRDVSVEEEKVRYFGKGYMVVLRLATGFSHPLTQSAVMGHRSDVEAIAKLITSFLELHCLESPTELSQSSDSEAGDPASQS
# UniProt P01036: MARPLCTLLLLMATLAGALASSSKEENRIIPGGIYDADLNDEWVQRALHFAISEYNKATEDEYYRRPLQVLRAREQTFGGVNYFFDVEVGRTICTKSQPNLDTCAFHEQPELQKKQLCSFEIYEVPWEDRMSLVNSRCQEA
# UniProt Q49AN0: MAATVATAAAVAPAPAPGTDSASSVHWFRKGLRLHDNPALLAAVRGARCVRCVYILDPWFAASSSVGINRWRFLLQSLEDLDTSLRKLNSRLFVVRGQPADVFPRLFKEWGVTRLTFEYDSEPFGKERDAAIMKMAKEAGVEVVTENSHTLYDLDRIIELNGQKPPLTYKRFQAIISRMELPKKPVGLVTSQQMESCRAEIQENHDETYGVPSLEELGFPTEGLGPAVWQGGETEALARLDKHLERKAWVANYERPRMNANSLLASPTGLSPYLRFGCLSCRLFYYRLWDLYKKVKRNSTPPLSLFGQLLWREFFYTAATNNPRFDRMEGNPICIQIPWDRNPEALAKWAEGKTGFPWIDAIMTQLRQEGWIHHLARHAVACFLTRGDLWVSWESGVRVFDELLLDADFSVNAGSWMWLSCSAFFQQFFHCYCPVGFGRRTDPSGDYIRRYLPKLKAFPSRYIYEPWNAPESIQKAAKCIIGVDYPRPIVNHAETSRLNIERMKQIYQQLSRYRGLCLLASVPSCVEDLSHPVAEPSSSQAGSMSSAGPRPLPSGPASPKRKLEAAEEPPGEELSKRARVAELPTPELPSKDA
# UniProt Q16619: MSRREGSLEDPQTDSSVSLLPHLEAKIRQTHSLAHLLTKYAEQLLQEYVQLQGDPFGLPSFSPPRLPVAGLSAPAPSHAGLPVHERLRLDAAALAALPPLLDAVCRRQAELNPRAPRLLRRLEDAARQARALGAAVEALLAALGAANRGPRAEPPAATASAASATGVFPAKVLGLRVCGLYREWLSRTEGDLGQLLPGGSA
# UniProt Q13948: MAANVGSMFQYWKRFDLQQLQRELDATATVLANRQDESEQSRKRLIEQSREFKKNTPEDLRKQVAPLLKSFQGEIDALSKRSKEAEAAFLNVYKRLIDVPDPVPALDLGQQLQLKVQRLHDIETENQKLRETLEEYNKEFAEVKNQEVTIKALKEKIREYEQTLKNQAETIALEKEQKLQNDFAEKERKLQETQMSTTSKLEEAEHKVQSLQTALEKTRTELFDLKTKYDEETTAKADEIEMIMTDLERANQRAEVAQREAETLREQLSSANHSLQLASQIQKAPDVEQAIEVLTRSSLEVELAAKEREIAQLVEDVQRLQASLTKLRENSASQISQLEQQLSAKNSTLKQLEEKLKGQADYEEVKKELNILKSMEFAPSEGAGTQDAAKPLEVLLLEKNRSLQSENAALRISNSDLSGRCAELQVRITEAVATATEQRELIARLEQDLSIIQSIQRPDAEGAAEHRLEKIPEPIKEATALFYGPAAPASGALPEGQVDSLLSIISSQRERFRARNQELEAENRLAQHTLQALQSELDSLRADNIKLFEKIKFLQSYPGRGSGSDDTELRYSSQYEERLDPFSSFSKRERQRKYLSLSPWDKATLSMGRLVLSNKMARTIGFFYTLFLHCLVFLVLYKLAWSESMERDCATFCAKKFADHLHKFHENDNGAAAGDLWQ
# UniProt Q9Y2S2: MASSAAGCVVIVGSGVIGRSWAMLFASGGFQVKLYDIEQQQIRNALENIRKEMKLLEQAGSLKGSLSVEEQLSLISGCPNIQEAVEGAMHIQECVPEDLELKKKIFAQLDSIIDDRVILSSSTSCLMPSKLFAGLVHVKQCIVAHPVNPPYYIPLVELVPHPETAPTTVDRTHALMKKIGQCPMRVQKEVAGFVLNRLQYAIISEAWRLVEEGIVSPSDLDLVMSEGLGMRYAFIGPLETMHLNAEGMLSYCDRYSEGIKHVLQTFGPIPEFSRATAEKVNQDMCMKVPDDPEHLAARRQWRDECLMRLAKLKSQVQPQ
# UniProt Q9UBT7: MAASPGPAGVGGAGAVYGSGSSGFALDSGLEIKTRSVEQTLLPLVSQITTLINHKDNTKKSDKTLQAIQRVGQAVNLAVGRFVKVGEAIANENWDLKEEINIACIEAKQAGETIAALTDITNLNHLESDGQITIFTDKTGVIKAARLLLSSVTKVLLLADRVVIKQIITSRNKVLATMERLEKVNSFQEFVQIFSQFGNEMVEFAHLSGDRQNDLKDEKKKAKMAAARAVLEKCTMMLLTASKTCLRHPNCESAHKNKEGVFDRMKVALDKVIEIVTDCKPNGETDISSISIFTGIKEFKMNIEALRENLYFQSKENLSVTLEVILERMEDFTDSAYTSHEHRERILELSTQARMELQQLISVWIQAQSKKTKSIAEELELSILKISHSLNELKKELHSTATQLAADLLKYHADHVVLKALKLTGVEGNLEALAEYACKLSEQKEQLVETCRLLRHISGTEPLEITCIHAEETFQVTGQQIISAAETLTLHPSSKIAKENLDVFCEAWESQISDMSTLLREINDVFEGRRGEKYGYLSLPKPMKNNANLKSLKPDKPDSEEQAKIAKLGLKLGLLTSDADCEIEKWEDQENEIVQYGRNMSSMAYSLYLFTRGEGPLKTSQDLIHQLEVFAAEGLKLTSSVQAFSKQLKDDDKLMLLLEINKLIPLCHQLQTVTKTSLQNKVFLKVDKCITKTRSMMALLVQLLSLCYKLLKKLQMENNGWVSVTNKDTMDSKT
# UniProt Q7LFL8: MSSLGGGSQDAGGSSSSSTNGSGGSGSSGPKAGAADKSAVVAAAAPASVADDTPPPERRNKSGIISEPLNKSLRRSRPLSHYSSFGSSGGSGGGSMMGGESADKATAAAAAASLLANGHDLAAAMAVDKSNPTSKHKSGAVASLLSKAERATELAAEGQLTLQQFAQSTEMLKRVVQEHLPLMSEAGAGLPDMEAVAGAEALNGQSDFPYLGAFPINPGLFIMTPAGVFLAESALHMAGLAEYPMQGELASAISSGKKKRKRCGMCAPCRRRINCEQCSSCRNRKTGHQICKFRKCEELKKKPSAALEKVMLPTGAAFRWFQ
# Some of the results follow.
# Compound: C1=CC=C(C=C1)[C@H](COC2=CC3=C(C=C2)NC(=O)N3)NC(=O)C4=CC=CN(C4=O)CC5=CC(=C(C=C5)F)F
# Experiment: log2 fold change, soluble protein after heating vs DMSO (PISA); higher = thermal stabilisation; K562 lysate, 10 uM; active = over 0.2 and 3.5 SD of the protein, either way, in both replicates (recomputed)
# How it was run: (§1)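 Thermal stability, expressed as log-two fold change relative to solvent controls, is given from duplicates. Crude K562 extract in PBS pH 7.4 with 1 mM MgCl2, at 1 mg/mL protein, was treated with 10 μM compound for 30 min and heated in aliquots for 3 min across 48°C-58°C. After pooling, adjustment to 0.5% NP-40 at 4°C and centrifugation at 21,000xg for 90 min, supernatant protein was measured by TMTpro 16plex LC-MS/MS with channel sums equalised.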
row,Target,log2 fold change
1,CREM isoform 1 (UniProt Q03060),inactive: -0.024
2,CROCC2 (UniProt H7BZ55),inactive: -0.027
3,CTTNBP2NL (UniProt Q9P2B4),inactive: 0.12
4,CRIP2 isoform 2 (UniProt P52943),inactive: 0
5,CRYM-AS1 (UniProt A6NIL9),inactive: -0.061
6,CSNK1G1 (UniProt Q9HCP0),inactive: 0.007
7,CRYM (UniProt Q14894),inactive: 0.035
8,CSDE1 isoform 3 (UniProt O75534),inactive: -0.18
9,CSRP2 (UniProt Q16527),inactive: -0.031
10,CRLS1 (UniProt Q9UJA2),inactive: -0.349
11,CYB5A (UniProt P00167),inactive: -0.121
12,CYBC1 (UniProt Q9BQA9),inactive: 0.009
13,CUL9 (UniProt Q8IWT3),inactive: -0.002
14,CS (UniProt F8VU34),inactive: -0.07
15,CST4 (UniProt P01036),inactive: -0.086

# Compound: CC1=C(SC2=C1C(=N[C@H](C3=NN=C(N32)C)CC(=O)N)C4=CC=C(C=C4)Cl)C
# Experiment: as above
# How it was run: as §1
row,Target,log2 fold change
1,CREM isoform 1 (UniProt Q03060),inactive: -0.026
2,CROCC2 (UniProt H7BZ55),inactive: -0.118
3,CTTNBP2NL (UniProt Q9P2B4),inactive: 0
4,CRIP2 isoform 2 (UniProt P52943),inactive: 0.052
5,CRYM-AS1 (UniProt A6NIL9),inactive: 0.002
6,CSNK1G1 (UniProt Q9HCP0),inactive: -0.015
7,CRYM (UniProt Q14894),inactive: -0.026
8,CSDE1 isoform 3 (UniProt O75534),inactive: -0.098
9,CSRP2 (UniProt Q16527),inactive: -0.018
10,CRLS1 (UniProt Q9UJA2),inactive: 0.044
11,CYB5A (UniProt P00167),inactive: -0.108
12,CYBC1 (UniProt Q9BQA9),inactive: -0.043
13,CUL9 (UniProt Q8IWT3),inactive: -0.151
14,CS (UniProt F8VU34),inactive: 0.148
15,CST4 (UniProt P01036),inactive: 0.224

# Compound: CC1=C2C(=CC=C1)N=C(N(C2=O)C3=CC=CC=C3C)CN4C=NC5=C(N=CN=C54)N
# Experiment: as above
# How it was run: as §1
row,Target,log2 fold change
1,CRY2 (UniProt Q49AN0),inactive: -0.181
2,CTTNBP2NL (UniProt Q9P2B4),inactive: 0.056
3,CTF1 (UniProt Q16619),inactive: 0.404
4,CUX1 isoform 2 (UniProt Q13948),inactive: 0.03
5,CRYM-AS1 (UniProt A6NIL9),inactive: 0.08
6,CRNN (UniProt Q9UBG3),inactive: 0.071
7,CRYM (UniProt Q14894),inactive: 0.05
8,CRTC2 (UniProt H0YDQ8),inactive: -0.075
9,CRAMP1 (UniProt Q96RY5),inactive: -0.194
10,CTIF (UniProt O43310),inactive: 0.094
11,CTRB2 (UniProt Q6GPI1),inactive: 0.083
12,CRYL1 (UniProt Q9Y2S2),inactive: 0.136
13,CTNNAL1 (UniProt Q9UBT7),inactive: 0.072

# Compound: Cc1sc2c(c1C)C(c1ccc(Cl)cc1)=N[C@@H](CC(=O)OC(C)(C)C)c1nnc(C)n1-2
# Experiment: as above
# How it was run: as §1
row,Target,log2 fold change
1,CREM isoform 1 (UniProt Q03060),inactive: -0.068
2,CROCC2 (UniProt H7BZ55),inactive: 0.015
3,CTSS (UniProt P25774),inactive: 0.058
4,CTF1 (UniProt Q16619),inactive: -0.061
5,CRIP2 isoform 2 (UniProt P52943),inactive: -0.177
6,CUX1 isoform 2 (UniProt Q13948),inactive: 0.075
7,CSRNP2 (UniProt Q9H175),inactive: 0.004
8,CXXC5 (UniProt Q7LFL8),inactive: 0.068
9,CSNK1G1 (UniProt Q9HCP0),inactive: 0.004
10,CSNK1A1 isoform 3 (UniProt P48729),inactive: 0.021
11,CTDSP1 (UniProt Q9GZU7),inactive: 0.098
12,CRAMP1 (UniProt Q96RY5),inactive: -0.048
13,CRISP3 isoform 3 (UniProt P54108),inactive: 0.457
14,CSGALNACT2 (UniProt Q8N6G5),inactive: 0.022
15,CTNNBIP1 (UniProt Q9NSA3),inactive: 0.072
16,CYB5A (UniProt P00167),inactive: 0.049
17,CRYL1 (UniProt Q9Y2S2),inactive: -0.044
18,CYBC1 (UniProt Q9BQA9),inactive: -0.018
19,CTSG (UniProt P08311),inactive: -0.277
20,CS (UniProt F8VU34),inactive: 0.01
21,CST4 (UniProt P01036),inactive: 0.012
22,CTDNEP1 (UniProt O95476),inactive: -0.002
23,CTNNAL1 (UniProt Q9UBT7),inactive: 0.065

# Compound: c1ccc([C@@H]2C[C@H]2NC2CCNCC2)cc1
# Experiment: as above
# How it was run: as §1
row,Target,log2 fold change
1,CRY2 (UniProt Q49AN0),inactive: -0.013
2,CREM isoform 1 (UniProt Q03060),inactive: 0.044
3,CTTNBP2NL (UniProt Q9P2B4),inactive: 0.039
4,CTSS (UniProt P25774),inactive: -0.006
5,CTF1 (UniProt Q16619),inactive: 0.064
6,CRIP2 isoform 2 (UniProt P52943),inactive: -0.084
7,CRY1 (UniProt Q16526),inactive: 0.016
8,CUX1 isoform 2 (UniProt Q13948),inactive: 0.193
9,CRYM-AS1 (UniProt A6NIL9),inactive: -0.092
10,CST1 (UniProt P01037),inactive: -0.099
11,CRYM (UniProt Q14894),inactive: -0.13
12,CTDSP1 (UniProt Q9GZU7),inactive: 0.049
13,CSDE1 isoform 3 (UniProt O75534),inactive: 0.043
14,CSF1 (UniProt P09603),inactive: -0.007
15,CROT isoform 3 (UniProt Q9UKG9),inactive: 0.043
16,CSRP2 (UniProt Q16527),inactive: 0.003
17,CRLS1 (UniProt Q9UJA2),inactive: 0.065
18,CRISP3 isoform 3 (UniProt P54108),inactive: 0.267
19,CTRB2 (UniProt Q6GPI1),inactive: -0.342
20,CYB5A (UniProt P00167),inactive: -0.009
21,CYBC1 (UniProt Q9BQA9),inactive: -0.115
22,CUL9 (UniProt Q8IWT3),inactive: 0.079
23,CTSG (UniProt P08311),inactive: -0.161
24,CTSF (UniProt Q9UBX1),inactive: -0.064
25,CTNNAL1 (UniProt Q9UBT7),inactive: 0.042
